In PubChem BioAssay AID1671190 (National Center for Advancing Translational Sciences (NCATS), 2021):
The whole screen tested about 580,000 compounds, of which about 6,100 (1.1%) were called active. Inconclusive means that the source gave no clear call. Such entries were picked first, then a sample of the others. Calls come from the whole dose curve; as a rule, active = well fitted inhibition curve with a large enough effect; inconclusive = small, poorly fitted or top-dose-only effect, or another doubt; inactive = no such curve, though single readings can be large or run the other way. A potency beside an inconclusive call is a rough fit, not a confirmed value.
% is set by controls: 0 for no effect and ±100 for the full control effect; potency is the fitted concentration of half-maximal effect.

Amino acid sequences for entries named in this document (tags omitted). A change or cut given only in a name is not applied to a line headed by its entry.
UniProt P18054: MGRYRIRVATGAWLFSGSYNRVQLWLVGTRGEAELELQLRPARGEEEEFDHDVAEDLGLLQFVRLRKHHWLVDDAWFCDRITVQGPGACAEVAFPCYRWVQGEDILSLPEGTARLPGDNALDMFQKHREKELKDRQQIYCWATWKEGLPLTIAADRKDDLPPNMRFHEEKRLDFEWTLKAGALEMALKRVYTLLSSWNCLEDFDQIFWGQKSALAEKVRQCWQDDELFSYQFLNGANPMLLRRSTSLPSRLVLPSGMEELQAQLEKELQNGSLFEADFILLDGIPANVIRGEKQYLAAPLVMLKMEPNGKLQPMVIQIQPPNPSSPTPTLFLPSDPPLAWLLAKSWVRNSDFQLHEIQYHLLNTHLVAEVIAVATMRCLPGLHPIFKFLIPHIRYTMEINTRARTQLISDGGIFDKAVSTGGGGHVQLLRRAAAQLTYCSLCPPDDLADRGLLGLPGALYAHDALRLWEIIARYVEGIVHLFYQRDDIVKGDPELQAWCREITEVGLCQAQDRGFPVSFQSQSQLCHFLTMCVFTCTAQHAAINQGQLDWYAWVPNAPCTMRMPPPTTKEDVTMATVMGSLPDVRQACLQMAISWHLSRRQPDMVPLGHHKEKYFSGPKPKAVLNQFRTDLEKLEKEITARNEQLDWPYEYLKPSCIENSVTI

Each molecule was assayed against Polyunsaturated fatty acid lipoxygenase ALOX12 (Homo sapiens) (UniProt P18054) (assay: Primary qHTS assay for inhibitors of human arachidonate 12S-lipoxygenase (ALOX12): Round 2). Conditions: purified 12hLO, xylenol orange hydroperoxide absorbance; activity change, negative = inhibition: at 108 µM (top of the series) unless noted.
How it was run: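 Purified human 12hLO at 150 nM in 25 mM Hepes, 0.01% Triton X-100, pH 7.0, preincubated 15 min at room temperature with compound. Reaction started with 40 uM arachidonic acid, 30 min at room temperature. Hydroperoxide measured by Fe-xylenol orange, 573/405 nm absorbance ratio.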
In the case of CCc1noc(C)c1C(=O)OCC(=O)c1c[nH]c2c(CC)cccc12, the Potency is reported as inconclusive: 89.1 µM [inhibitor, single point]. For COc1ccc(NC(=O)c2cc3c(=O)n(Cc4ccco4)ccc3nc2C)cc1, the activity change, negative = inhibition was inconclusive: -31.9% [inhibitor]. In the case of CC1CCc2nc3ccc4ccccc4c3c(-c3ccc(O)cc3)c2C1 (centres undefined), the Potency is reported as inconclusive: 39.8 µM [inhibitor, partial curve, poor fit]. In the case of COc1ccc(N2CCN(S(=O)(=O)CCNC(=O)C(c3ccccc3)c3ccccc3)CC2)cc1, the Potency is reported as inconclusive: 126 µM [inhibitor, partial curve, poor fit]. COc1cc(OC)c(OC)cc1/C=C1\CCC/C(=C\c2cc(OC)c(OC)cc2OC)C1=O was tested, and the Potency was inconclusive: 44.7 µM [inhibitor, partial curve, poor fit]. COc1ccc(NC(=O)CN2CCN(c3c(C)cc(C)cc3C)CC2)cc1 was tested, and the Potency was inconclusive: 31.6 µM [inhibitor, single point]. For CN(C(=O)COC(=O)CSc1cc(Cl)ccc1Cl)c1c(N)n(Cc2ccccc2)c(=O)[nH]c1=O, the Potency was inconclusive: 50.1 µM [inhibitor, partial curve, poor fit]. O=C(CSc1nccn1Cc1ccc2c(c1)OCO2)Nc1nccs1 was tested, and the Potency was inconclusive: 31.6 µM [inhibitor, single point]. In the case of Cc1cc(Cl)ccc1OCc1n[nH]c(=S)n1C1CCCCC1, the Potency is reported as inconclusive: 6.31 µM [inhibitor, full curve, poor fit]. CC(C)(C)C(=O)Oc1ccc2cc(-c3ccc4ccccc4n3)c(=O)oc2c1 was tested, and the Potency was “inactive”. In the case of Cc1ccc(-c2ncc(C(=O)Nc3cccc(Br)c3)c(-c3ccncc3)n2)cc1, the Potency is reported as inconclusive: 35.5 µM [inhibitor, partial curve]. For COc1ccc(NC(=O)c2ccc3c(c2)OCO3)cc1, the Potency was inconclusive: 100 µM [inhibitor, single point]. In the case of COc1cc(C2Oc3ccccc3C=C2[N+](=O)[O-])cc(OC)c1OC (centres undefined), the Potency is reported as inconclusive: 63.1 µM [inhibitor, partial curve, poor fit]. In the case of Cc1ccc(-c2c(CN3CCN(c4cccc(C(F)(F)F)c4)CC3)csc2C)cc1, the Potency is reported as inconclusive: 63.1 µM [inhibitor, partial curve, poor fit]. For CCCCCNC(=O)CC(c1cccc(OC)c1OC)c1c[nH]c2c(CC)cccc12 (centres undefined), the Potency was inconclusive: 28.2 µM [inhibitor, full curve]. CS(=O)(=O)Cc1ccc(C(=O)OCc2cc(=O)oc3cc4c(cc23)CCC4)cc1 was tested, and the Potency was inconclusive: 31.6 µM [inhibitor, partial curve, poor fit]. Fc1c(F)c(C(F)(F)F)c(F)c(F)c1Sc1cccc2cccnc12 was tested, and the Potency was “inactive”. In the case of Cc1cc(C)c(S(=O)(=O)Nc2ccc3c(c2)CCC3)c(C)c1, the Potency is reported as inconclusive: 141 µM [inhibitor, partial curve, poor fit]. For O=C(COC(=O)c1cccc([N+](=O)[O-])c1C(=O)OCC(=O)c1ccc(Br)cc1)c1ccc(Br)cc1, the Potency was “inactive”. For Cc1ccc(C)c(NC(=S)NCCc2ccc(F)cc2)c1, the Potency was inconclusive: 50.1 µM [inhibitor, partial curve, poor fit]. In the case of CC(NS(=O)(=O)c1ccc(Cl)cc1)C(=O)OCC(=O)Nc1ccc(N(C)C)cc1 (centres undefined), the Potency is reported as inconclusive: 50.1 µM [inhibitor, partial curve, poor fit]. In the case of O=C(CSc1ncnc2ccccc12)Nc1ccccc1, the Potency is reported as inconclusive: 89.1 µM [inhibitor, partial curve, poor fit]. NC(=O)Cc1c[nH]c2ncc(-c3ccccc3Oc3ccccc3)cc12 was tested, and the Potency was inconclusive: 89.1 µM [inhibitor, partial curve, poor fit]. With c1ccc(-c2nnsc2-c2ncc[nH]2)cc1 the Potency was “inactive”. For O=C(CN1C2=NCCCN2c2ccccc21)c1cccc(Br)c1, the Potency was “inactive”. Cc1ccc(OCC(=O)Nc2ccc3c(C)cc(=O)oc3c2)cc1 was tested, and the Potency was inconclusive: 35.5 µM [inhibitor, partial curve, poor fit]. For CCCCC(=O)Oc1ccc(C2C3=C(CC(C)(C)CC3=O)OC3=C2C(=O)CC(C)(C)C3)cc1OC, the Potency was “inactive”. With COc1ccc(-c2noc(CC3CCN(C(=O)c4cc(F)ccc4F)CC3)n2)cc1 the Potency was “inactive”. With CN(Cc1ccccc1)c1nc2c(c(=O)n(C)c(=O)n2C)n1CCSc1nc2ccccc2o1 the Potency was “inactive”. Cn1cc(-c2nc3cnc(N4CCNCC4)nc3n(C)c2=O)c2ccccc21 was tested, and the Potency was inconclusive: 28.2 µM [inhibitor, partial curve, poor fit]. With COc1ccc(CCNC(=O)CSc2nc(-c3ccc(Cl)cc3)nc3cc(=O)[nH]n23)cc1OC the Potency was inconclusive: 89.1 µM [inhibitor, single point]. COc1cccc(C(=O)Nc2ccc(N3CCCC3)cc2)c1 was tested, and the Potency was inconclusive: 12.6 µM [inhibitor, partial curve, poor fit]. For C=CCn1c(-c2cccc(Cl)c2)n[nH]c1=S, the Potency was inconclusive: 50.1 µM [inhibitor, partial curve, poor fit]. In the case of CC(C)(C)c1ccc(SC2=C[C@@]3(O)CC[C@@H](O)[C@@](Sc4ccc(C(C)(C)C)cc4)(C2=O)[C@H]3O)cc1, the Potency is reported as inconclusive: 39.8 µM [inhibitor, partial curve, poor fit]. With CCOC(=O)C1=C(c2ccccc2)OC(N)=C(C#N)C1c1ccco1 (centres undefined) the Potency was “inactive”. In the case of CCn1nc(C(=O)Nc2ccnn2C2CCN(C)CC2)c2ccccc2c1=O, the Potency is reported as “inactive”. For COc1ccc(NS(=O)(=O)c2cc(NC(=O)[C@H](C)NC(N)=O)ccc2N2CCCC2)cc1, the Potency was inconclusive: 35.5 µM [inhibitor, partial curve, poor fit]. For CCCn1c(SCC(=O)Nc2nnc(-c3ccccc3)s2)nnc1-c1ccccn1, the Potency was inconclusive: 7.94 µM [inhibitor, partial curve, poor fit]. In the case of CN(C)c1cccc(C(=O)N2CCC3(CC2)NC(=O)N(c2ccccc2)N3)c1, the Potency is reported as inconclusive: 10 µM [inhibitor, full curve, poor fit].
